Entries after “also recorded” stand apart in the source; their conditions may differ. At least one peptide structure holds a part that was inferred or is arguable (an end, a ring closure or a residue). Some of these results come from one statement about several compounds together. Non-standard residues stand in square brackets, D forms with d. Residues, ends and D or L forms follow the SMILES beside them. *: point of attachment. pS = N[C@@H](COP(=O)(O)O)C(=O)O; X1 = C=C(C*)C(=O)OCC
Tests used:
14-3-3σ [1] = biological target: T1, 14-3-3σ (Homo sapiens, UniProt P31947); test: Fluorescence polarization competition/binding experiment; conditions: peptide 5 μM, 14-3-3σ 0.25 μM, fluorescent peptide 5 nM, 27° C., immediately after mixing
T1 sequence (P31947 with tags, fused parts or gaps): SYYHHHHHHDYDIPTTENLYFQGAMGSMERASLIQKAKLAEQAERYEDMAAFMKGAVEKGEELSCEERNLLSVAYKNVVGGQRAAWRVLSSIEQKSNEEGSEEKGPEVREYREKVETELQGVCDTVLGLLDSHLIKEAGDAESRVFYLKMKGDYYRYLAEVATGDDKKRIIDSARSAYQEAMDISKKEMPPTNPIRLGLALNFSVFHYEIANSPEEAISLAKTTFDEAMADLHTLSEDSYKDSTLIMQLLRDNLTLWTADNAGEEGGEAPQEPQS

[2] = Peptide stability in buffer and intrinsic reactivity with lysine and cysteine; format: physicochemical; conditions: incubation with cysteine, room temperature
Method: The intrinsic reactivity and stability of the active peptides with their labeling rates were compared). Their stability was tested in buffer and in the presence of lysine and cysteine at room temperature. […] The reactivity towards cysteine was much higher—the peptides reacted with cysteine to generate both Michael adducts as well as substitution products in which the thiol peptide is released. Peptides SEQ ID 3, SEQ ID 8 and SEQ ID 11 were more than >50% reacted within 2.5 hours.
The LS/MS runs for peptides were performed using the same instrument with a C18-CSH column (300 Å, 1.7 μm, […]) using a gradient starting from 1% B for 1 minute, rising to 95% B in 4.5 minutes, holding at 95% B for 0.75 minutes, then decreasing to 1% B in 0.75 minutes and holding at 1% B for 1 minute. MS data were collected at a range of 80-2500 m/z, using identical conditions for ionization as with the protein.

14-3-3σ [3] = biological target: T1, 14-3-3σ; test: LC/MS/MS (parallel reaction monitoring) characterization of labeling sites; format: binding; design: made in house; host or cells: E. coli NiCo21 (DE3); conditions: peptide 5 μM, 14-3-3σ 2 μM, 48 hours, trypsin digestion, PRM
14-3-3σ [4] = biological target: T2, 14-3-3σ (Homo sapiens, UniProt P31947); test: Co-crystallization of 14-3-3σ-peptide complexes; format: binding; conditions: 14-3-3σ truncated after T231
T2 construct: C-terminally truncated (DC=delta C) after T231 (Threonine 231 in the protein); His6 (N); made in house
T2 sequence (P31947 1-231 limits assumed): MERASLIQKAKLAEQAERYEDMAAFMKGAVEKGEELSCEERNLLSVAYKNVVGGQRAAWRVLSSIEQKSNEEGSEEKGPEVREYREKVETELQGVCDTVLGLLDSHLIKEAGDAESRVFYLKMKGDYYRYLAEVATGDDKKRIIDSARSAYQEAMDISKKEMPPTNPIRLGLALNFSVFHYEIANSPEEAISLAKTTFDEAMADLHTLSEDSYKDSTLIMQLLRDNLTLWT

14-3-3 isoforms = test: Binding to 14-3-3 isoforms using LC-MS qTOF; conditions: protein:peptide 1:5, overnight, 4° C.
Method: The 14-3-3 isoforms were buffer-exchanged into complexation buffer (20 mM HEPES pH 7.5, 100 mM NaCl, 10 mM MgCl2) and mixed with the peptides (3/8) in a 1:5 molar stoichiometry (protein:peptide) at a final concentration of 10 mg/mL. The complexes were buffer-exchanged into milliQ+0.1% formic acid after overnight incubation at 4° C.
UPLC-QToF-MS analysis was performed on a Waters (Milford, MA, USA) Acquity I-Class UPLC system coupled to a Waters Xevo G2 quadrupole time-of-flight (QToF) mass spectrometer. The devices were controlled by MassLynx Software (version 4.1, Waters, MA, USA). Full scan in positive electrospray ionization (ESI+) mode was used as MS acquisition mode with an acquisition range from 200-2000 m/z. […] The samples concentration were 0.01-0.1 mg/mL, and the injection volume was 1 μL. Deconvolution was performed by the MaxEnt1 option of the MassLynx software. Errors were calculated using the MaxEnt Errors option.

SMILES	displacement of the fluorescent binder at 5 μM (14-3-3σ [1])	peptide reacted with cysteine within 2.5 hours [2] [%]	binding site on 14-3-3σ (change in signal of non-modified tryptic peptides relative to DMSO) (14-3-3σ [3])	covalently modified residue in crystal structure (14-3-3σ [4])	labeling of 14-3-3 isoforms (14-3-3 isoforms)
C=C(CSC[C@H](NC(=O)[C@H](CO)NC(=O)[C@H](C)NC(=O)[C@@H]1CCCN1C(=O)[C@H](CO)NC(=O)[C@H](COP(=O)(O)O)NC(=O)[C@H](Cc1c[nH]cn1)NC(=O)[C@H](C)NC(=O)[C@H](CCCNC(=N)N)NC(C)=O)C(=O)N[C@@H](CCC(N)=O)C(N)=O)C(=O)OCC [SEQ ID 11, Ac-RAHpSSPASmCQ-NH2] (Ac-RAH[pS]SPASC(X1)Q-NH2)	had sufficient affinity to displace the fluorescent binder	> 50	reacted with Cys38 rather than the predicted Lys122; also recorded: specifically reduced the signal of the Cys38-containing peptides	–	–
C=C(CSC[C@H](NC(=O)[C@H](COP(=O)(O)O)NC(=O)[C@H](C)NC(=O)[C@H](CO)NC(=O)[C@H](CCCNC(=N)N)NC(C)=O)C(=O)N1CCC[C@H]1C(=O)N[C@@H](CO)C(=O)N[C@@H](CC(C)C)C(N)=O)C(=O)OCC [SEQ ID 3, Ac-RSApSmCPSL-NH2] (Ac-RSA[pS]C(X1)PSL-NH2)	–	> 50	peptides containing or following Lys122 were significantly depleted	covalent bond formed between the amine of Lys122 with the methacrylate	labeled all isoforms with similar efficiencies
C=C(CSC[C@H](NC(=O)[C@H](COP(=O)(O)O)NC(=O)[C@H](Cc1c[nH]cn1)NC(=O)[C@H](C)NC(=O)[C@H](CCCNC(=N)N)NC(C)=O)C(=O)N1CCC[C@H]1C(=O)N[C@@H](C)C(=O)N[C@@H](CO)C(=O)N[C@@H](CC(C)C)C(=O)N[C@@H](CCC(N)=O)C(N)=O)C(=O)OCC [SEQ ID 8, Ac-RAHpSmCPASLQ-NH2] (Ac-RAH[pS]C(X1)PASLQ-NH2)	–	> 50	peptides containing or following Lys122 were significantly depleted	covalent bond formed between the amine of Lys122 with the methacrylate	labeled all isoforms with similar efficiencies

Source: patent US20260226096A1, “MODIFIED PROTEINS OR PEPTIDES FOR COVALENT TARGETING” (YEDA RESEARCH AND DEVELOPMENT CO. LTD., priority 2023, published 2026)
